# Data taken from patent US6391564B1, “Methods and compositions utilizing Rad51” (priority 1997, dated 2002).
# Tested on: TGR-1 cells
compound,measurement,setting,value
"CN[C@H]1CCc2cc(OC)c(OC)c(OC)c2-c2ccc(OC)c(=O)cc21 [Colcemid, colcemid]",colcemid-treated cells showing multinuclei (>10 micronuclei),24 hrs 0.1 μg/ml colcemid,17%
same,colcemid-treated cells with no micronuclei,24 hrs 0.1 μg/ml colcemid,65%
same,"content of induced micronuclei (Rad51 protein, fragmented DNA)","TGR-1 cultures treated with colcemid, FIG. 5C",contain Rad51 protein
same,Rad51 staining in nuclei versus micronuclei,"TGR-1 treated with colcemid one day, recovered two days, FIG. 7E-F",absence of Rad51 staining in the nuclei
